The target of assay [1] is T1, MYC-tagged ZCCHC8^177-707 (human) (UniProt Q6NZY4).
T1 sequence: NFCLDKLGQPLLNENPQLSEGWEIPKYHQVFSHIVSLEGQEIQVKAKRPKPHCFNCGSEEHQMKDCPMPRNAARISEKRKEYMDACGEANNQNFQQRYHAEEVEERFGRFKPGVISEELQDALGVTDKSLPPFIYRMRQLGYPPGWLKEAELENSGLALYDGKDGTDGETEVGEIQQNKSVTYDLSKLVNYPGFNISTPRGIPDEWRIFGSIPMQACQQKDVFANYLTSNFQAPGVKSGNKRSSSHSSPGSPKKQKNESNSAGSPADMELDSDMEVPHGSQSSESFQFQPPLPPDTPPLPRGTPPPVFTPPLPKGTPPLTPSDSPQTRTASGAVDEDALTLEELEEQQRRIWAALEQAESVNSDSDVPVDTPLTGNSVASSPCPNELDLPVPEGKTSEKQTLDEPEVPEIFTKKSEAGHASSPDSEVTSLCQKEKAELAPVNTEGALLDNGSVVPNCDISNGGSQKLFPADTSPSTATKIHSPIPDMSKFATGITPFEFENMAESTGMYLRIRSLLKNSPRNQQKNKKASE
The assay can be described thus: co-IP; MYC antibody with Protein G Dynabeads from whole cell extract of HeLa:TIR1 ZCCHC8-3F-mAID cells, HT150 buffer (20 mM HEPES pH 7.4, 150 mM NaCl, 0.5% Triton X-100); cells mock treated or treated with auxin (IAA); western blot.

Assay [2] deals with T2, MYC-tagged ZCCHC8^1-707 (human) (UniProt Q6NZY4).
T2 sequence: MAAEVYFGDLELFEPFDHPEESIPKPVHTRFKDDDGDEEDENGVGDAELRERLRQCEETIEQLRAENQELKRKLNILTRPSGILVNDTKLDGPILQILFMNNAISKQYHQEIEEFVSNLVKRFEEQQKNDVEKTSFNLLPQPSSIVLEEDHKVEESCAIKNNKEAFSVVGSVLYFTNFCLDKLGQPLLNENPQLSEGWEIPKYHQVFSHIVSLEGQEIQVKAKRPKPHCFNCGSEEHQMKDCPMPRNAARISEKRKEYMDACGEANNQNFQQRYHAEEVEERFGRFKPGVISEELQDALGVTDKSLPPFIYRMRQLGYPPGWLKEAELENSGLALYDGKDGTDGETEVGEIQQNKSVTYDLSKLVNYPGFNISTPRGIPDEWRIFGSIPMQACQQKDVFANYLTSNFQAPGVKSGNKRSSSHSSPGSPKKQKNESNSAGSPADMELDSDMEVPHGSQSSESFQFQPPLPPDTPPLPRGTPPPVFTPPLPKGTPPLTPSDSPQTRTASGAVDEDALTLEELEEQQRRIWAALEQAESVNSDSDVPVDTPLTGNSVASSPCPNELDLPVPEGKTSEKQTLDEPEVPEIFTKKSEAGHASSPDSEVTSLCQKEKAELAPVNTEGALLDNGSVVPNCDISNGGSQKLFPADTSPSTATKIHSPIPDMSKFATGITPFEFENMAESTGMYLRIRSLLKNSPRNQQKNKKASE
Described as above.

Assay [3] deals with ZCCHC8 (residues 177-337) (human) (UniProt Q6NZY4). Kind of assay: SEC; pre-assembled complexes of full-length MTR4, RBM7(RRM) and N-terminally truncated ZCCHC8 constructs ending at 337; Superdex 200 Increase 3.2/300; 20 mM Hepes-NaOH pH 7.5, 150 mM NaCl, 2 mM DTT; 300 pmol in 30 μL injected; peak fractions on SDS-PAGE; both purified. A general note: In gel filtration, larger molecules generally elute earlier.

Assay [4] has the same target. Kind of assay: SEC; ZCCHC8 constructs with RBM7 present and MTR4 absent (Figure S3A); both purified.

No constants are given. Whether binding was seen depends on the method and setting. For some of these results: Binding seen in cells or lysates may run through a third protein. Some binding calls cover weakened binding; strength is not graded here. For some of these results: Tags and fused reporters may be left off the sequences shown.

B1: endogenous ZCCHC8-3F-mAID (protein, UniProt Q6NZY4 1-707)
chain: MAAEVYFGDLELFEPFDHPEESIPKPVHTRFKDDDGDEEDENGVGDAELRERLRQCEETIEQLRAENQELKRKLNILTRPSGILVNDTKLDGPILQILFMNNAISKQYHQEIEEFVSNLVKRFEEQQKNDVEKTSFNLLPQPSSIVLEEDHKVEESCAIKNNKEAFSVVGSVLYFTNFCLDKLGQPLLNENPQLSEGWEIPKYHQVFSHIVSLEGQEIQVKAKRPKPHCFNCGSEEHQMKDCPMPRNAARISEKRKEYMDACGEANNQNFQQRYHAEEVEERFGRFKPGVISEELQDALGVTDKSLPPFIYRMRQLGYPPGWLKEAELENSGLALYDGKDGTDGETEVGEIQQNKSVTYDLSKLVNYPGFNISTPRGIPDEWRIFGSIPMQACQQKDVFANYLTSNFQAPGVKSGNKRSSSHSSPGSPKKQKNESNSAGSPADMELDSDMEVPHGSQSSESFQFQPPLPPDTPPLPRGTPPPVFTPPLPKGTPPLTPSDSPQTRTASGAVDEDALTLEELEEQQRRIWAALEQAESVNSDSDVPVDTPLTGNSVASSPCPNELDLPVPEGKTSEKQTLDEPEVPEIFTKKSEAGHASSPDSEVTSLCQKEKAELAPVNTEGALLDNGSVVPNCDISNGGSQKLFPADTSPSTATKIHSPIPDMSKFATGITPFEFENMAESTGMYLRIRSLLKNSPRNQQKNKKASE
Consider B1, for which the binding entry is “no binding” in assay [1] and “binds” in assay [2].

B2: ZCCHC8 (residues 177-337) (domain or fragment, human, UniProt Q6NZY4 177-337, looked up)
chain: NFCLDKLGQPLLNENPQLSEGWEIPKYHQVFSHIVSLEGQEIQVKAKRPKPHCFNCGSEEHQMKDCPMPRNAARISEKRKEYMDACGEANNQNFQQRYHAEEVEERFGRFKPGVISEELQDALGVTDKSLPPFIYRMRQLGYPPGWLKEAELENSGLALYD
notes: source: E. coli BL21 Star (DE3) pRARE, co-expressed and co-purified with RBM7(1-98); not shown: His6, N-terminal, cleaved; GST, N-terminal, cleaved
For B2, the binding entry in assay [3] is reported as “no binding (tested: 30 μL containing 300 pmol injected)”; in assay [4] it was “no binding”.

The record behind these values is article PMC9278407, “Structure and regulation of the nuclear exosome targeting complex guides RNA substrates to the exosome” (Molecular Cell, 2022).
